No constants are given. Whether binding was seen depends on the method and setting. Binding seen in cells or lysates may run through a third protein. Some binding calls cover weakened binding; strength is not graded here.
Experiments:
[1] = biological target: T1, T7-ORCA (full-length) (human) (UniProt Q9UFC0); experiment: co-IP; sequential IP from triply transfected U2OS: HA IP, HA peptide elution, then T7 antibody IP; immunoblot
T1 sequence: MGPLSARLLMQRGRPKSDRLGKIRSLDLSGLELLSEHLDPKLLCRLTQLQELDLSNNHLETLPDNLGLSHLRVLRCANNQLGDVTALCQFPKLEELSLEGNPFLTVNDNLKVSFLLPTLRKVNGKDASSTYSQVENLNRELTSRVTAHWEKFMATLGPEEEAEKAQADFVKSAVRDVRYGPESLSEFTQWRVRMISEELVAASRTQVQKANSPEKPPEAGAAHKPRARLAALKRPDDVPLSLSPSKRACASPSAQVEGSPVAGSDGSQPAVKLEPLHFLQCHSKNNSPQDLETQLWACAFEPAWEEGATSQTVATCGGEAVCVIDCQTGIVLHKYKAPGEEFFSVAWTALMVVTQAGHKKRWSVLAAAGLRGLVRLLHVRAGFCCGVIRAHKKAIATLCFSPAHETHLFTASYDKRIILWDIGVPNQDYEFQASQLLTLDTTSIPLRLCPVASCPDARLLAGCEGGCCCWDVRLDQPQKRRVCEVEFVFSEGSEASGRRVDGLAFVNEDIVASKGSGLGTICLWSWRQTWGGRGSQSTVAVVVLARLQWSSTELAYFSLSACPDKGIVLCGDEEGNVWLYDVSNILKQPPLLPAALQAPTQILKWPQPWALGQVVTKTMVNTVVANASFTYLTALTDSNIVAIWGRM

Protein sequences, listed by entry. Tags and fused reporters are not part of them.
UniProt Q96KQ7: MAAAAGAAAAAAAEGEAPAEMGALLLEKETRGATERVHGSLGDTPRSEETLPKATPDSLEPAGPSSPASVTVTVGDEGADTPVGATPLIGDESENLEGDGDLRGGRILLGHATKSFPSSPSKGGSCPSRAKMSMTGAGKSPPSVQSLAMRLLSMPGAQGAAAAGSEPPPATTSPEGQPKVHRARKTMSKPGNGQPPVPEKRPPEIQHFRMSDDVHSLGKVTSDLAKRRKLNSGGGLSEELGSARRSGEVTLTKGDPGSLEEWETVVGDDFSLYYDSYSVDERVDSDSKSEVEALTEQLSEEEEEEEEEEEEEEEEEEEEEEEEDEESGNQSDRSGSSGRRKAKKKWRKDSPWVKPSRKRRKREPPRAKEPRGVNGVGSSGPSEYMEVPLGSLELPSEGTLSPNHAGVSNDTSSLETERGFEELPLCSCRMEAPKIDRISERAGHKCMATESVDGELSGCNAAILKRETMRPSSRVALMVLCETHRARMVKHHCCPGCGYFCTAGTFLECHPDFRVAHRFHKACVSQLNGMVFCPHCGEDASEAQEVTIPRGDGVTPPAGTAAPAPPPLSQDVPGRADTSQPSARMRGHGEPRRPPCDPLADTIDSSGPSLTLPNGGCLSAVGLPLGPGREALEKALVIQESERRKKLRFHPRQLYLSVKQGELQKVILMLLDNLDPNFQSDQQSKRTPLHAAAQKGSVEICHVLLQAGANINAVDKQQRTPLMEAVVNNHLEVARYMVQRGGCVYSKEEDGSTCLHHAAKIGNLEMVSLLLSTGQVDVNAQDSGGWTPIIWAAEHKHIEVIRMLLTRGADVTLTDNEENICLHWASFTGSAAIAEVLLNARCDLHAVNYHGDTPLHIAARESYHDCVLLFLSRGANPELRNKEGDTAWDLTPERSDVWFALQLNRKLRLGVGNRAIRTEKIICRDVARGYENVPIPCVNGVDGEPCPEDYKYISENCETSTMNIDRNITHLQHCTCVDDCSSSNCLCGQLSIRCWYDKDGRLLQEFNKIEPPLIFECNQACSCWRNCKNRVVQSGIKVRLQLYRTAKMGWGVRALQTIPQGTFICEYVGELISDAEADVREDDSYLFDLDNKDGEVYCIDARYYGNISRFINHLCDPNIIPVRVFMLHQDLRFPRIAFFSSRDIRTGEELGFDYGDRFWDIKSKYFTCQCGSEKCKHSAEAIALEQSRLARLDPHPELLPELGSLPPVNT

[2] = biological target: T1, T7-ORCA (full-length) (human); experiment: co-IP; T7 antibody IP from co-transfected cells in the presence of ethidium bromide (50 μg/ml in lysate, 80 μg/ml in washes)
[3] = biological target: T1, T7-ORCA (full-length) (human); experiment: co-IP; co-IP after Benzonase treatment of the lysate (1000 U, 20 min RT); data not shown
[4] = biological target: T2, T7-ORCA (270–647) (human) (UniProt Q9UFC0); experiment: co-IP; transient co-transfection in U2OS; IP buffer 50 mM Tris pH 7.4, 150 mM NaCl, 10% glycerol, 0.1% NP-40, 1 mM DTT; antibody-conjugated agarose (ORCA, T7 or HA antibody) overnight; immunoblot; for G9a-Suv39H1 also in control and ORCA siRNA cells
T2 sequence: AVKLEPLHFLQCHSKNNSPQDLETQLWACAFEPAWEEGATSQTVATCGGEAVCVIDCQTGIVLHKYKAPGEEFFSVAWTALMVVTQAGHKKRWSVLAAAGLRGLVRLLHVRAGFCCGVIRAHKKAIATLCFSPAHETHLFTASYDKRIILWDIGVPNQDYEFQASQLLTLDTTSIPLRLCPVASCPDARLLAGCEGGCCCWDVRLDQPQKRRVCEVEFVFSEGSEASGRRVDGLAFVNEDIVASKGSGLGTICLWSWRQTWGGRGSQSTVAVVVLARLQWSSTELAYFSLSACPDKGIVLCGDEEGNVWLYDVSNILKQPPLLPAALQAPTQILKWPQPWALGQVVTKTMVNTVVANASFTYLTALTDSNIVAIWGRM

T7-ORCA (1–127) (human) = biological target: T3, T7-ORCA (1–127) (human) (UniProt Q9UFC0); experiment: as above
T3 sequence: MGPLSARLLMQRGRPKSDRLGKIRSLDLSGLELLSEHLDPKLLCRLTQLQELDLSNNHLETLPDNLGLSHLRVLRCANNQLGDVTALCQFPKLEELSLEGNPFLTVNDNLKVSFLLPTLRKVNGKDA

[5] = biological target: T1, T7-ORCA (full-length) (human); experiment: as above
[6] = biological target: T4, T7-ORCA (128–647) (human) (UniProt Q9UFC0); experiment: as above
T4 sequence: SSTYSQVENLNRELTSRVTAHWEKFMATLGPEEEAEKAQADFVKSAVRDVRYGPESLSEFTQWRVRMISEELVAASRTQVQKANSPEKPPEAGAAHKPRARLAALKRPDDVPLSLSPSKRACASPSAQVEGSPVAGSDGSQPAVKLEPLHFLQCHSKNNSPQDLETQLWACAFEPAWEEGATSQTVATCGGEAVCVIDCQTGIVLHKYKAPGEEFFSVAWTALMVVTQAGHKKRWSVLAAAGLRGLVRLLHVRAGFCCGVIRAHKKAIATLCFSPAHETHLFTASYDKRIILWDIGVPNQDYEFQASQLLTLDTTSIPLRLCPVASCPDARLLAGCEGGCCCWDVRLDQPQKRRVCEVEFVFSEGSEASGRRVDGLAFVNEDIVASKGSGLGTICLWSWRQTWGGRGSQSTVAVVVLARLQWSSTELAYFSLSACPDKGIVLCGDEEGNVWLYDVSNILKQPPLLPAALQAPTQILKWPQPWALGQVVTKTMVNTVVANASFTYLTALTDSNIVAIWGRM

T7-ORCA (1–270) (human) = biological target: T5, T7-ORCA (1–270) (human) (UniProt Q9UFC0); experiment: as above
T5 sequence: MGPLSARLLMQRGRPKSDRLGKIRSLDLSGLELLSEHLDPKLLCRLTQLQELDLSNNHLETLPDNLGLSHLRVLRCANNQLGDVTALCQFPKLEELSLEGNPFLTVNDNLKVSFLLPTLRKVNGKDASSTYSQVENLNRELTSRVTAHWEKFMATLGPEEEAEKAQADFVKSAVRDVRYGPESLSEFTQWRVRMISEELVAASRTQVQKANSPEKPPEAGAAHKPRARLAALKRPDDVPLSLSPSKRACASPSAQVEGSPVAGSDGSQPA

- binding [1]: binds
- binding [2]: binds
- binding [3]: binds
- binding [4]: binds
- binding (T7-ORCA (1–127) (human)): binds
- binding [5]: binds
- binding [6]: binds
- binding (T7-ORCA (1–270) (human)): no binding
Substance: Flag-G9a (from UniProt Q96KQ7 1-1210) (enzyme)

From article PMC4442312 (eLife, 2015)
